Repeats are few or missing, and single values can be far off.
Compound: [O-][N+](C(C1=C(C(O)=C2)NC(C(C=C3)=CC=C3Cl)C4C1C=CC4)=C2Cl)=O
Assay: melting temperature shift (compound 7 minus DMSO); higher = compound stabilises the protein
Conditions: 10 µM
Method: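 Thermal proteome profiling (TMT mass spectrometry) in intact DAOY medulloblastoma cells or DAOY lysates treated with 10 µM compound 7 or DMSO, heated at 10 temperatures from 40.5 to 73.8 °C for 3 min. Melting curves were fitted with the Bioconductor TPP package, and the melting point difference between compound and vehicle is reported per protein (single curve per condition).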

By UniProt entry, the sequences of proteins in these tests, tags left out. Where a name states a change or a piece, a line headed by the entry shows the natural chain unless it says otherwise.
UniProt Q9Y6N5: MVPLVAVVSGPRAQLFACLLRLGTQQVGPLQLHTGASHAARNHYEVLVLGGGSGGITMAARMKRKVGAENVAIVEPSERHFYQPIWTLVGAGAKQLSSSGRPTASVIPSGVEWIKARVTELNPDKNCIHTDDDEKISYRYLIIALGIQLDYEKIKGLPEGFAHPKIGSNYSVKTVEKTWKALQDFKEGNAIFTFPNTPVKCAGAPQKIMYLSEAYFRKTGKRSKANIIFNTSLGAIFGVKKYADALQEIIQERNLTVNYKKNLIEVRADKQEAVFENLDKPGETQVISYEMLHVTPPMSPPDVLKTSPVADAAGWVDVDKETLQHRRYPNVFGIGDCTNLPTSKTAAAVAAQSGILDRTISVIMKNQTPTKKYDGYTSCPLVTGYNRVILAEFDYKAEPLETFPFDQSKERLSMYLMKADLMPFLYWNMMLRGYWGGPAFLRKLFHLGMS
UniProt Q8N668, whole entry: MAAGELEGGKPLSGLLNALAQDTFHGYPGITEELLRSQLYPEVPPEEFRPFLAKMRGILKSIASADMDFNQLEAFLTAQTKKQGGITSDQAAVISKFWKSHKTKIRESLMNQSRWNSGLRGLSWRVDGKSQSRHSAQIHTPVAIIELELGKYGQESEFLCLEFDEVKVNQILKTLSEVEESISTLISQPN
UniProt Q8TCF1: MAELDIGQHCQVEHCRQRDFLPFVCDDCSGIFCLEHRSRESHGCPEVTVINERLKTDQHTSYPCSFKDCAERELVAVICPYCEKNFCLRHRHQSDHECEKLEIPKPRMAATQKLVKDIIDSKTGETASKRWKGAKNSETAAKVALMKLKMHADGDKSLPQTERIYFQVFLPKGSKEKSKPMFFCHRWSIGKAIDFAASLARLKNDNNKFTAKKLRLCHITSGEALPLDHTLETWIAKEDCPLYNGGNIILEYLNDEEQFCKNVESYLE
UniProt Q9NQC3: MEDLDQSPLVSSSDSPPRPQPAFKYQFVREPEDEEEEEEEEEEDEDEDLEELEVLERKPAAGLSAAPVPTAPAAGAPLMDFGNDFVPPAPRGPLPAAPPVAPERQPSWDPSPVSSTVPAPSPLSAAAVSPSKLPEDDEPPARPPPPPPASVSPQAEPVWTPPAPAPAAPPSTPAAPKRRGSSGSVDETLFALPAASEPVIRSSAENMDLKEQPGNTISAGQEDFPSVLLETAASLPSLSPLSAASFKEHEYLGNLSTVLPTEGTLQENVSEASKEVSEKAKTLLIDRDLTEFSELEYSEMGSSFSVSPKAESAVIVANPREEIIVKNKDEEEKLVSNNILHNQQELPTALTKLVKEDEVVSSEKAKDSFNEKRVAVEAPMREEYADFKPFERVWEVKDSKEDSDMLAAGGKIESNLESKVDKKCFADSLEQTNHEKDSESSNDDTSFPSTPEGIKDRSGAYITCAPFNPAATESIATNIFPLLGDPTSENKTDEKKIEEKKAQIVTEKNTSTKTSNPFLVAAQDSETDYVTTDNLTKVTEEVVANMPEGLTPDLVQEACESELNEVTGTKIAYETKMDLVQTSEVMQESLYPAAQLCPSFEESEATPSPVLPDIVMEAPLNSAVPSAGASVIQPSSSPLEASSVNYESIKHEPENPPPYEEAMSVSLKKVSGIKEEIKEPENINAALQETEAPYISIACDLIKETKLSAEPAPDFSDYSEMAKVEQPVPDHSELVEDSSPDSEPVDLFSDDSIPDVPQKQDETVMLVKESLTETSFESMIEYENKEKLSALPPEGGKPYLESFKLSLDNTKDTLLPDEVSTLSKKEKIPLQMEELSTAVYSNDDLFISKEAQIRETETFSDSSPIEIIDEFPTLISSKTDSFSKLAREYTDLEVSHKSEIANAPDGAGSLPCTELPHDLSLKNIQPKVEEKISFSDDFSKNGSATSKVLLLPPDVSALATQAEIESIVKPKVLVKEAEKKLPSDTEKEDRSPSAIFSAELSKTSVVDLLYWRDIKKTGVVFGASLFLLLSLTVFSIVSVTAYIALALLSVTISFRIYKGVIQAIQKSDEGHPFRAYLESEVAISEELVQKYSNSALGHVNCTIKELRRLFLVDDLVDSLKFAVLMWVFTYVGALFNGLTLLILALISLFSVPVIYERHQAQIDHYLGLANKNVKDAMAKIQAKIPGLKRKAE
UniProt Q8TEQ6: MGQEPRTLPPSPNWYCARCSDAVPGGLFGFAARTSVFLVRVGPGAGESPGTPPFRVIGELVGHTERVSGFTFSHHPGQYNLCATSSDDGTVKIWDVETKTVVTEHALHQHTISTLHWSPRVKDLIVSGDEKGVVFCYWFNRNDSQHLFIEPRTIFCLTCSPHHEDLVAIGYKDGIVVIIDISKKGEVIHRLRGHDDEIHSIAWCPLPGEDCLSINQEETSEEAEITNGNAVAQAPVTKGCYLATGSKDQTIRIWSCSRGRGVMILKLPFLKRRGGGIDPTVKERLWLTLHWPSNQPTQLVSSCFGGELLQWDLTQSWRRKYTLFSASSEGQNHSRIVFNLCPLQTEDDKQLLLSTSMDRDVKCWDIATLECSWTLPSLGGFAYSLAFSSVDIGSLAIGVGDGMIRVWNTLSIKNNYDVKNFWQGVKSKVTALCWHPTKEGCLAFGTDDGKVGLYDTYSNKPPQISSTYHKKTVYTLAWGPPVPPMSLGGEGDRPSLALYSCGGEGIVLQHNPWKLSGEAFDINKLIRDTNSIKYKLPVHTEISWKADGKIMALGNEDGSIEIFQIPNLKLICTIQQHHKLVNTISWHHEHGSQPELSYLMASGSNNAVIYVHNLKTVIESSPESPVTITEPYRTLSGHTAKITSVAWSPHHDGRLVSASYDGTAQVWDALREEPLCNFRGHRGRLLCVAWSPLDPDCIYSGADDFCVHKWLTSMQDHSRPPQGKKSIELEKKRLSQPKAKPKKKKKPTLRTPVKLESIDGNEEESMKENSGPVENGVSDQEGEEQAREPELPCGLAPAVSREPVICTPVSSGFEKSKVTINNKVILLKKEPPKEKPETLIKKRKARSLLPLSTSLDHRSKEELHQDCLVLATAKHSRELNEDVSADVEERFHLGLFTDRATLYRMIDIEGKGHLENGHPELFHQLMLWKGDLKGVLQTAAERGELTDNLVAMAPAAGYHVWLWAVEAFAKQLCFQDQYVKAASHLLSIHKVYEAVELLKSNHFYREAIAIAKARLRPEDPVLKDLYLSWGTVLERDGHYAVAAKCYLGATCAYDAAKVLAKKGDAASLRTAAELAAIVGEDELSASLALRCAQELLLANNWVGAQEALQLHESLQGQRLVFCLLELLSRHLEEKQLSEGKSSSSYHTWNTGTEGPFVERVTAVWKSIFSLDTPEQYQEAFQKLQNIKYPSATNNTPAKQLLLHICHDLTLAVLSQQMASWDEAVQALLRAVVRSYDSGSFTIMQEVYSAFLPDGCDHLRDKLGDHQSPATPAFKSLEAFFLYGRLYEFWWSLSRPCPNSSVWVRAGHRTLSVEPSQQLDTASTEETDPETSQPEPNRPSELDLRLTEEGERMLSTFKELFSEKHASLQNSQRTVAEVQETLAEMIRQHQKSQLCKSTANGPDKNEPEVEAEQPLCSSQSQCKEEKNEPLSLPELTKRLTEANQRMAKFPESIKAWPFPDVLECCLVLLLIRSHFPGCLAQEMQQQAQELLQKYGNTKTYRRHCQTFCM
UniProt Q9NQE9: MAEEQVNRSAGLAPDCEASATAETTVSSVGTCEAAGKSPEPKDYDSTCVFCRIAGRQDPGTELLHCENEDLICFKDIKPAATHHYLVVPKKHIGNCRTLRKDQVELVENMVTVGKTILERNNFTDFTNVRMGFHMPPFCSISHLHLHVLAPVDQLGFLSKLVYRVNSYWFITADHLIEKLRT
UniProt Q9UJX6, whole entry: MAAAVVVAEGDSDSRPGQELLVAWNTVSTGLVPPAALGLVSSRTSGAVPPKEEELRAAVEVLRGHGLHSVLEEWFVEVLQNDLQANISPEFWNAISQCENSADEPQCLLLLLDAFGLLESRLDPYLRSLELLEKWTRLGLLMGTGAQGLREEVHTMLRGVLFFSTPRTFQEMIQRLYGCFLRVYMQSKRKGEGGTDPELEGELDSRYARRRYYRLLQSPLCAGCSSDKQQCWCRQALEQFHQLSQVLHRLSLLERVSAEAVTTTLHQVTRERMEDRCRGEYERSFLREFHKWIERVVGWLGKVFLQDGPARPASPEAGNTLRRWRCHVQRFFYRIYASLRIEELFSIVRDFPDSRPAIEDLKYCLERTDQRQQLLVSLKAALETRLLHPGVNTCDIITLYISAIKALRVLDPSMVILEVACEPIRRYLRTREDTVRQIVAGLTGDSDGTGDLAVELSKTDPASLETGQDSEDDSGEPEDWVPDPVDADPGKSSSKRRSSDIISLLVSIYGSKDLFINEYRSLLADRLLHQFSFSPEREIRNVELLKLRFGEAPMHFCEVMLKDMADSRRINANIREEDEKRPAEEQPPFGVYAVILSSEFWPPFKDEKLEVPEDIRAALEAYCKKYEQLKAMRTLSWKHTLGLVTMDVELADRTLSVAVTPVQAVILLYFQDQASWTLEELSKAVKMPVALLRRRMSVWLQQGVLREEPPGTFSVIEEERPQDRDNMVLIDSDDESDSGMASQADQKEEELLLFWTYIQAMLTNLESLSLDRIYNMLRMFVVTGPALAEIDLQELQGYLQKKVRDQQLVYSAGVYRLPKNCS
UniProt Q8N3F8: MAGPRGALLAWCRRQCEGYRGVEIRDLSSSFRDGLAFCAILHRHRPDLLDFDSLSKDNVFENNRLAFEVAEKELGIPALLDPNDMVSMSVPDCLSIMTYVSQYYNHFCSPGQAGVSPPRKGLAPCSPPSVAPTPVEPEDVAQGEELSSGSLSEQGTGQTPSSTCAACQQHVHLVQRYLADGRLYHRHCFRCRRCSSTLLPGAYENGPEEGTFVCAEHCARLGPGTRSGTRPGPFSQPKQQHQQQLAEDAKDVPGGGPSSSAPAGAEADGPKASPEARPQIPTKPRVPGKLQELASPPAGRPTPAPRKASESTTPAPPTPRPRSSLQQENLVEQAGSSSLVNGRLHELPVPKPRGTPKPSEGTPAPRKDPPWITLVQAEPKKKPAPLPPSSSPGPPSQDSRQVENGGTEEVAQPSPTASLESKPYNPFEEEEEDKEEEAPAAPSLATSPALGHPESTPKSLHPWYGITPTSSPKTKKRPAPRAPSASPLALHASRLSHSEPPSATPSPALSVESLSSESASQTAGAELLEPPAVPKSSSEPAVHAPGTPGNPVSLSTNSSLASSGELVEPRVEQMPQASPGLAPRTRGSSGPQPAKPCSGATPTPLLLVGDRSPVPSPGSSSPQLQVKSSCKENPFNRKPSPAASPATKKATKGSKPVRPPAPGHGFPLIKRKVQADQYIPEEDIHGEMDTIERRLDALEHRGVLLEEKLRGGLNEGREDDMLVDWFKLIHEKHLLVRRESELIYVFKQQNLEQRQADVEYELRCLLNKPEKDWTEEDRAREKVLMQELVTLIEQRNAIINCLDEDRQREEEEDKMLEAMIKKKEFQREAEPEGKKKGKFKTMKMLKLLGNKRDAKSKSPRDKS
UniProt P14649: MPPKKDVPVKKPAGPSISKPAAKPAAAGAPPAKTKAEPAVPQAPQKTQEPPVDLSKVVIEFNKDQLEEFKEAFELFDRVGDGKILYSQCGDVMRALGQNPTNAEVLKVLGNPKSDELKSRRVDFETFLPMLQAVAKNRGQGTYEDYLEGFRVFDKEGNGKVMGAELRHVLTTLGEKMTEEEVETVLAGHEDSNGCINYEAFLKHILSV
UniProt Q9BZV1: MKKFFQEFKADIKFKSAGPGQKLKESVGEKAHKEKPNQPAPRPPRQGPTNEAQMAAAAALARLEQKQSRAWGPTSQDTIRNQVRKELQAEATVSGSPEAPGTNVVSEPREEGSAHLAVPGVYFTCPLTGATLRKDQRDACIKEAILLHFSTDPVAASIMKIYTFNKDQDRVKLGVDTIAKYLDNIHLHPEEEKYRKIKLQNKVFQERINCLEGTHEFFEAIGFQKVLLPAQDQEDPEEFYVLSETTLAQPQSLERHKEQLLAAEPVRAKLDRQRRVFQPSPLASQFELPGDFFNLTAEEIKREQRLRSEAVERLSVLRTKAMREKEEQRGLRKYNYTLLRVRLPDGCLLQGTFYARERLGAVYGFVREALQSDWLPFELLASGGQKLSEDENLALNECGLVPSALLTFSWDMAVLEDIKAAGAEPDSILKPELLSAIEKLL
UniProt P61024, whole entry: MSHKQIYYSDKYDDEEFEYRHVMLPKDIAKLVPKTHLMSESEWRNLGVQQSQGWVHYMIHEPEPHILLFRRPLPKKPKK
UniProt P04439, whole entry: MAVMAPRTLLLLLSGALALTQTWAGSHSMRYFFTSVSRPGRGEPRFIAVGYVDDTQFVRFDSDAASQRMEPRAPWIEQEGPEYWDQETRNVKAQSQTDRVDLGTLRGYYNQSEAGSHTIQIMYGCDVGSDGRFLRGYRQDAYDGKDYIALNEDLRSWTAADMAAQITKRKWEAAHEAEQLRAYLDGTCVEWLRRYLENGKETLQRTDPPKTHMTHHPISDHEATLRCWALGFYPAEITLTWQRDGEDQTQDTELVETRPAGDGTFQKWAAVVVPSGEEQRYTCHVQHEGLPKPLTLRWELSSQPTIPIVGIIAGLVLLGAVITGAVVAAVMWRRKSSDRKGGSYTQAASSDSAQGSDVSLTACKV

[1] = system: DAOY cell lysate, treatment time: 20 min, 4 °C
[2] = system: intact DAOY cells, treatment time: 90 min, 37 °C

Target	melting temperature shift [1] [°C]	melting temperature shift [2] [°C]
YIPF4 (UniProt Q9BSR8)	0.288	-0.27
FNDC3A (UniProt Q9Y2H6)	0.244	-0.814
PA2G4 (UniProt Q9UQ80)	-0.424	-0.393
PCF11 (UniProt O94913)	-2.03	–
PALLD (UniProt Q8WX93)	-0.144	-0.385
SQRDL (UniProt Q9Y6N5)	5.05	1.09
COMMD1 (UniProt Q8N668)	0.231	-0.109
UGP2 (UniProt Q16851)	-0.53	-0.506
UniProt P48378	–	-0.798
DHCR7 (UniProt Q9UBM7)	0.61	-1.47
FAM50A (UniProt Q14320)	-0.213	-0.197
MRPS18A (UniProt Q9NVS2)	1.69	-0.324
SKIV2L2 (UniProt P42285)	-0.0375	-0.284
MCCC1 (UniProt Q96RQ3)	-3.37	0.751
KIF3A (UniProt Q9Y496)	-0.542	-0.668
TJAP1 (UniProt Q5JTD0)	-0.839	-0.743
UniProt Q96EM0	-0.381	-1.02
UniProt Q9H147	0.523	-3.46
UniProt Q99717	-4.45	–
POLB (UniProt P06746)	-2.13	–
UniProt Q9Y6E0	-0.502	0.38
MRPL13 (UniProt Q9BYD1)	-0.827	-2.49
ZFAND1 (UniProt Q8TCF1)	-0.0693	0.266

Target	melting temperature shift [1] [°C]	melting temperature shift [2] [°C]
RTN4 (UniProt Q9NQC3)	-0.333	–
ARHGAP29 (UniProt Q52LW3)	-1.25	-0.773
NR3C1 (UniProt P04150)	0.00244	0.153
CHKA (UniProt P35790)	0.178	-2.33
SYVN1 (UniProt Q86TM6)	-0.323	-1.23
GCSH (UniProt P23434)	2.01	–
PGRMC2 (UniProt O15173)	1.75	–
GEMIN5 (UniProt Q8TEQ6)	-0.756	-0.547
PPID (UniProt Q08752)	-0.357	-0.287
TMEM186 (UniProt Q96B77)	–	-0.938
RAB5C (UniProt P51148)	0.783	-0.275
UniProt P68371	-0.413	-0.772
DSP (UniProt P15924)	-0.925	–
UniProt Q9BQ49	-0.231	–
NSL1 (UniProt Q96IY1)	1.86	0.973
PDIA6 (UniProt Q15084)	0.78	0.109
GINS1 (UniProt Q14691)	0.19	-0.676
UniProt O96033	-1.08	-0.694
RALB (UniProt P11234)	2.54	-0.96
SH3GL1 (UniProt Q99961)	-1.28	-0.133
PCYOX1 (UniProt Q9UHG3)	1.18	-0.457
UniProt Q8IX95	–	0.161
MAP2K6 (UniProt P52564)	–	-0.548

Pulled one by one from above:
Target	melting temperature shift [1] [°C]	melting temperature shift [2] [°C]
PCYOX1 (UniProt Q9UHG3)	1.18	-0.457
RALB (UniProt P11234)	2.54	-0.96
DSP (UniProt P15924)	-0.925	–
NR3C1 (UniProt P04150)	0.00244	0.153
UniProt Q9BQ49	-0.231	–

Next entries.

Target	melting temperature shift [1] [°C]	melting temperature shift [2] [°C]
MRPS34 (UniProt P82930)	0.0118	-0.18
WDR47 (UniProt O94967)	-0.926	0.737
VLDLR (UniProt P98155)	-1.13	–
SEC31A (UniProt O94979)	-0.77	-0.435
HINT3 (UniProt Q9NQE9)	2.06	-0.35
UniProt Q9HAU4	0.505	–
PDHB (UniProt P11177)	-0.245	-0.841
MORF4L2 (UniProt Q15014)	0.51	1.37
SFN (UniProt P31947)	-2.59	–
UniProt P28065	-0.624	0.0138
PNISR (UniProt Q8TF01)	1.62	-0.278
ANAPC2 (UniProt Q9UJX6)	-0.185	–
MICALL1 (UniProt Q8N3F8)	-1.34	0.964
MYL6B (UniProt P14649)	-4.53	–
HTATSF1 (UniProt O43719)	-0.337	-0.733
SNRNP40 (UniProt Q96DI7)	-0.00863	1.49
GARS (UniProt P41250)	-0.326	0.795
HEBP2 (UniProt Q9Y5Z4)	-1.27	0.336
UQCRFS1 (UniProt P47985)	1.13	-1.19
CNN2 (UniProt Q99439)	-0.496	-0.356
LARP4 (UniProt Q71RC2)	-0.446	–
UniProt Q96LZ7	7.31	–
YIF1B (UniProt Q5BJH7)	-1.43	-0.0183

Target	melting temperature shift [1] [°C]	melting temperature shift [2] [°C]
CBR1 (UniProt P16152)	-0.000388	-0.724
UBXN6 (UniProt Q9BZV1)	0.529	–
SELENBP1 (UniProt Q13228)	1.26	–
NAF1 (UniProt Q96HR8)	-0.427	2.79
CNOT11 (UniProt Q9UKZ1)	–	-1.16
PDCD6 (UniProt O75340)	-0.0622	0.253
RIOK1 (UniProt Q9BRS2)	-0.728	-1.09
EXTL2 (UniProt Q9UBQ6)	0.433	–
CKS1B (UniProt P61024)	-2.59	–
UniProt P33778	2.06	-1.2
TACC3 (UniProt Q9Y6A5)	-3.33	–
LRPAP1 (UniProt P30533)	-1.14	–
UniProt P04439	2.32	–
EXOSC1 (UniProt Q9Y3B2)	-0.505	0.378
REPS2 (UniProt Q8NFH8)	–	1.6
UniProt Q9ULU4	1.45	-0.455
FKBP8 (UniProt Q14318)	0.783	-0.48
UniProt O95626	–	0.337
UniProt P62072	-6.69	–
ZNF451 (UniProt Q9Y4E5)	-1.57	–
LSM8 (UniProt O95777)	-0.732	-2.77
TAB2 (UniProt Q9NYJ8)	-0.944	1.02

— the supplement of paper PMC10060354, “Discovery of a small molecule ligand of FRS2 that inhibits invasion and tumor growth” (Cellular Oncology, 2022)
